Experimental data as given in patent US10533989B2, “Metabolomics in pneumonia and sepsis” (University of Pittsburgh—Of the Commonwealth System of …, priority 2012, dated 2020).

Assay: Cecal ligation and puncture (CLP) sepsis model, metabolite levels in liver and kidney homogenates
Type: in vivo, C57BL/6 male mice
Settings: mice, 8 h after CLP

SMILES	Relative level in kidney homogenate, CLP vs sham	Relative level in liver homogenate, CLP vs sham	Relative level in kidney homogenate, CLP vs sham (listed as Pseudouridine)	Relative level in liver homogenate, CLP vs sham (listed as Pseudouridine)	Difference CLP vs sham consistent across both liver and kidney compartments
O=c1[nH]cc([C@@H]2O[C@H](CO)[C@@H](O)[C@H]2O)c(=O)[nH]1 [pseudouridine]	significant relative difference	significant relative difference	increased	increased	
CNc1nc2c(ncn2[C@@H]2O[C@H](CO)[C@@H](O)[C@H]2O)c(=O)[nH]1 [N-2-methylguanosine]					No other differences were consistent
C[C@@H](O)[C@H](NC(=O)Nc1ncnc2c1ncn2[C@@H]1O[C@H](CO)[C@@H](O)[C@H]1O)C(=O)O [N6-carbamoylthreonyladenosine]					No other differences were consistent
Cn1cnc2c(ncn2[C@@H]2O[C@H](CO)[C@@H](O)[C@H]2O)c1=N [N1-methyladenosine]	not significantly different	significant greater			
NC(=O)NC1NC(=O)NC1=O (stereo not drawn) [allantoin]					No other differences were consistent
